Assay results: publication PMC4992955, “Pichia pastoris Fep1 is a [2Fe-2S] protein with a Zn finger that displays an unusual oxygen-dependent role in cluster binding”
A weaker result is weaker than the reference pair of the same experiment. Protein sequences can lack the tags named with them.

Molecular target: T1, MBP-Fep1 (41-192) 4S C102S,C108S,C117S,C120S (Pichia pastoris (GS115)) (UniProt A4VAR6)
T1 sequence (looked up): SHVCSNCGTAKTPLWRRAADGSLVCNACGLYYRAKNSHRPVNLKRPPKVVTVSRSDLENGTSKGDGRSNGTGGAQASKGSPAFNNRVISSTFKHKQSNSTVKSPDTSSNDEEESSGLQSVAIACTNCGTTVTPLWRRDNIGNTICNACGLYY
Test: EMSA
Conditions: 5 uM ZnSO4, 5 uM FeCl3; 12.5 mM Hepes pH 7.9, 75 mM NaCl, 4 mM MgCl2, 1 mM EDTA, 10% glycerol, 4 mM Tris-HCl pH 7.9, 0.6 mM DTT, 1 ug poly(dI-dC)2, 5 uM ZnSO4, 5 uM FeCl3; 100-250 ng protein; recombinant protein; residues 41-192; protein details: MBP fusion; label: 32P end-label (alpha-32P)

## GGCGATTGAACTGATAATTTTACTAAATAAGTGGAA / GGATTCCACTTATTTAGTAAAATTATCAGTTCAAT [fetgata2/fetgata1 (FET3 promoter GATA probe)]
  binding result: binds more weakly
